Test results reported in US20080242600A1, “Backbone Cyclized Melanocortin Stimulating Hormone (Alpha Msh) Analogs” (priority 2005, published 2008).
At least one read-out could not be matched to a standard name with certainty. *1 amine or outer side, *2 acyl side, *3 side chain or, on linkers, in order; H or OH if unused. Where a SMILES comes first, the peptide text is derived from it. Bridges are numbered along the chain shown (N, C = ends). [ ]: non-standard residue; d: D form. N(2-Aminoethyl)Gly = O=C(CN(CCN[*:3])[*:1])[*:2]; Suc = O=C(CCC(=O)[*:2])[*:1]

Legend:
Caco-2 cells [1] = assay: Evaluation of intestinal permeability (Caco-2 monolayer transport); format: in vitro ADME; conditions: in vitro, compared to standards
Caco-2 cells [2] = conditions: standards in FIG. 4; cited from earlier work

| SMILES | intestinal permeability (Papp) (Caco-2 cells [1]) | intestinal permeability (Papp) (Caco-2 cells [1]; listed as BBC-1) | known intestinal permeability of standard molecules (Caco-2 cells [2]) |
| --- | --- | --- | --- |
| N=C(N)NCCC[C@@H]1NC(=O)[C@@H](Cc2ccccc2)NC(=O)[C@H](Cc2ccccc2)NC(=O)CCC(=O)NCCN(CC(N)=O)C(=O)[C@H](Cc2c[nH]c3ccccc23)NC1=O [BBC1] (F[dF]RW[N(2-Aminoethyl)Gly]-NH2; linker N-5 via Suc) | high intestinal permeability | high and enhanced in vitro intestinal permeability | – |
| OC[C@@H](O)[C@@H](O)[C@H](O)[C@H](O)CO [mannitol] | – | – | low permeability |
| CC(C)NCC(O)COc1cccc2ccccc12 (stereo not shown) [propranolol] | – | – | high intestinal permeability |
